Consider twelve molecules from US20220033505A1.

Amino acid sequences for entries named in this document (tags omitted). Residues count along the entry.
UniProt P07766, residues 23-207: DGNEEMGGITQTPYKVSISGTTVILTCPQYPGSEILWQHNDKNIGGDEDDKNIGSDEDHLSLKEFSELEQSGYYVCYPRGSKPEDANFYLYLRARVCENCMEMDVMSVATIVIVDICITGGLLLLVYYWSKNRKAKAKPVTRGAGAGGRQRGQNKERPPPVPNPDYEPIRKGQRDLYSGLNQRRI

To fix the notation:
B1: CD3W234-HL-E.c. (scFv)
scFv: EVQLVESGGGLVKPGGSLRLSCAASGFTFSRYNMNWVRQAPGKGLEWVSSISTSSNYIYYADSVKGRFTFSRDNAKNSLDLQMSGLRAEDTAIYYCTRGWGPFDYWGQGTLVTVSSGTEGKSSGSGSESKSTDILLTQSPGILSVSPGERVSFSCRARQSIGTAIHWYQQRTNGSPRLLIKYASESISGIPSRFSGSGSGTDFTLTINSVESEDIADYYCQQSNSWPYTFGGGTKLEIKGPGGQHHHHHHGAYPYDVPDYAS
B2: CD3W238-HL-E.c. (scFv)
scFv: EVQLVESGGGLVKPGGSLRLSCAASGFTFSRYNMNWVRQAPGKGLEWVSSISTSSNYIYYADSVKGRFTFSRDNAKNSLDLQMSGLRAEDTAIYYCTRGWGPFDYWGQGTLVTVSSGTEGKSSGSGSESKSTDIQMTQSPSSLSASVGDRVTITCRARQSIGTAIHWYQQKPGKAPKLLIYYASESISGVPSRFSGSGSGTDFTLTISSLQPEDFATYYCQQSNSWPYTFGQGTKLEIKGPGGQHHHHHHGAYPYDVPDYAS
B3: CD3W243-HL-E.c. (scFv)
scFv: B2 scFv with Y181K, L210V
B4: CD3W242-HL-E.c. (scFv)
scFv: B2 scFv with Y181K
B5: CD3W241-HL-E.c. (scFv, name in Kabat numbering)
scFv: B2 scFv with L210V
B6: clone 065_D03 (hybridoma supernatant) (antibody, V domains shown)
VH: EVQLVESGGGLVKPGGSLRLSCAASGFTFSRYNMNWVRQAPGKGLEWVSSISTSSNYIYYADSVKGRFTFSRDNAKNSLDLQMSGLRAEDTAIYYCTRGWGPFDYWGQGTLVTVSS
VL: DILLTQSPGILSVSPGERVSFSCRARQSIGTAIHWYQQRTNGSPRLLIKYASESISGIPSRFSGSGSGTDFTLTINSVESEDIADYYCQQSNSWPYTFGGGTKLEIK
B7: CD3B815 (antibody, human IgG1, kappa, V domains shown)
VH: B6 VH
VL: DILLTQSPGILSVSPGERVSFSCRARQSIGTAIHWYQQRTNGSPRLLIKYASESISGIPSRFSGSGSGTDFTLTINSVESEDIADYYCQQSNSWPYTFGGGTKLEIKR
B8: CD3W248-HL-E.c. (scFv)
scFv: B1 scFv with N224G
B9: CD3W247-HL-E.c. (scFv)
scFv: B2 scFv with N224G
B10: CD3W244-HL-E.c. (scFv)
scFv: B2 scFv with L210V, N224G
B11: CD3W245-HL-E.c. (scFv)
scFv: B2 scFv with Y181K, N224G
B12: CD3W246-HL-E.c. (scFv)
scFv: B2 scFv with Y181K, L210V, N224G

Substitutions are numbered along the chain they refer to. No constants are given. Whether binding was seen depends on the method and setting. Some binding calls cover weakened binding; strength is not graded here.

The first assay has as its target CD3W147 (homodimeric CD3 epsilon-gamma-Fc) (human). The assay can be described thus: ELISA; biotinylated CD3W147 immobilized at 0.039-2.5 ug/mL, scFv in E. coli supernatant, anti-HA-HRP.
On to B1, for which the binding result is “binds”.
On the same count and under the same terms, with B2 the entry was “binds”; with B3, “binds”; with B4, “binds”.
Still for that read-out and setting: with B5 the entry was “binds”.

Another assay concerns the target CD3 on human T cells (Jurkat cells, primary human T cells) (human) (UniProt P07766). Put plainly: flow cytometry; hybridoma supernatant on Jurkat cells.
Consider B6, for which the binding entry is reported as “binds”.

The next assay shares this target. The assay can be described thus: binding to Jurkat cells.
In the case of B7, the binding entry was “binds”.

The next assay shares this target. Put plainly: flow cytometry; hybridoma supernatant on primary T cells. A general note: In flow cytometry, cells or beads pass a laser one at a time.
As for B6, the binding entry is given as “binds”.

For a further assay the target is unchanged. Put plainly: flow cytometry; scFv in E. coli supernatant on human T cells.
In the case of B1, the binding entry was “binds”.
In the case of B8, the binding result was “binds”.
For B2, the binding entry is given as “binds”.
B3: the binding entry is listed as “binds”.
The same measure, in the same setting: with B9 the entry was “binds”.
B10: the binding result is listed as “binds”.
The same measure, in the same setting: with B4 the entry was “binds”.
Same read-out and setting: with B5 the entry was “binds”; with B11, “binds”; with B12, “binds”.
